Assay results: patent publication US20110195896A1 (CASE WESTERN RESERVE UNIVERSITY, priority 2008, published 2011)
At least one peptide structure holds a part that was inferred or is arguable (an end, a ring closure or a residue).

Tested on: diabetic Lewis rats
Test: Blood glucose lowering in streptozotocin-diabetic male Lewis rats after subcutaneous injection
Format: in vivo, rat
Details: 1.5 U/kg body weight subcutaneous, 0-90 min

In the case of `CC[C@H](C)[C@@H]1NC(=O)CNC(=O)[C@H](CCCNC(=N)N)NC(=O)[C@H](CCCNC(=N)N)NC(=O)[C@@H]2CCCN2C(=O)CNC(=O)CNC(=O)CNC(=O)[C@H]([C@@H](C)O)NC(=O)[C@@H]2CCCN2C(=O)[C@H](CC(=O)O)NC(=O)[C@H]([C@@H](C)O)NC(=O)[C@H](Cc2ccc(O)cc2)NC(=O)[C@H](Cc2ccccc2)NC(=O)[C@H](Cc2ccccc2)NC(=O)CNC(=O)[C@H](CCCNC(=N)N)NC(=O)[C@H](CCC(=O)O)NC(=O)CNC(=O)[C@@H]2CSSC[C@@H](C(=O)N[C@@H](CC(N)=O)C(=O)O)NC(=O)[C@H](Cc3ccc(O)cc3)NC(=O)[C@H](CC(N)=O)NC(=O)[C@H](CCC(=O)O)NC(=O)[C@H](CC(C)C)NC(=O)[C@H](CCC(N)=O)NC(=O)[C@H](Cc3ccc(O)cc3)NC(=O)[C@H](CC(C)C)NC(=O)[C@H](CO)NC(=O)[C@@H]3CSSC[C@H](NC(=O)[C@H](CCC(N)=O)NC(=O)[C@H](CCC(=O)O)NC(=O)[C@H](C(C)C)NC1=O)C(=O)N[C@@H](CSSC[C@H](NC(=O)[C@H](CC(C)C)NC(=O)[C@H](Cc1c[nH]cn1)NC(=O)[C@H](CCC(N)=O)NC(=O)[C@H](CC(N)=O)NC(=O)[C@@H](NC(=O)[C@@H](N)Cc1ccccc1)C(C)C)C(=O)NCC(=O)N[C@@H](CO)C(=O)N[C@@H](CC(=O)O)C(=O)N[C@@H](CC(C)C)C(=O)N[C@@H](C(C)C)C(=O)N[C@@H](CCC(=O)O)C(=O)N[C@@H](C)C(=O)N[C@@H](CC(C)C)C(=O)N[C@@H](Cc1ccc(O)cc1)C(=O)N[C@@H](CC(C)C)C(=O)N[C@@H](C(C)C)C(=O)N2)C(=O)N[C@@H](Cc1c[nH]cn1)C(=O)N[C@@H](CO)C(=O)N[C@@H]([C@@H](C)CC)C(=O)N3` [His^A8, Asp^B10, Asp^B28, Pro^B29 SCI], the “rate of decrease of blood glucose concentration” value is reported as 62.0±16.3 mg/dL per h.
